Data as given in publication PMC3632592, “FGF21 Can Be Mimicked In Vitro and In Vivo by a Novel Anti-FGFR1c/β-Klotho Bispecific Protein” (PLoS ONE, 2013).

Biological target: T1, human FGFR1c extracellular domain (human, UniProt P11362 22-376)
T1 construct: fibroblast growth factor receptor 1, c isoform (FGFR1c), human, recombinant extracellular domain; In the functional rows the receptor stood whole on transfected cells; source: purified recombinant
T1 sequence (looked up): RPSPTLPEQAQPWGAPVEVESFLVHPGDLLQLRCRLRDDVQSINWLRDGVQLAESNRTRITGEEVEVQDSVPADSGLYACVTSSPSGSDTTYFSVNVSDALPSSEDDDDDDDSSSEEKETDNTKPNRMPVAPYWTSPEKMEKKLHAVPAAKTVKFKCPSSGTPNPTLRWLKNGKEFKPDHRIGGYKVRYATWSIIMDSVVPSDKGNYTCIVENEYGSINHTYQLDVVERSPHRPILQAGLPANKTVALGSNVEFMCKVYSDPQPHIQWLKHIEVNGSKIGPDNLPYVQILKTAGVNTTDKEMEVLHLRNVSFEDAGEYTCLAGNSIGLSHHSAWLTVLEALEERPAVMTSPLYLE
Assay: ELISA; target proteins coated on a MaxiSorp 96-well plate at 20 nM overnight at 4°C; Avimers titrated in 20 mM Tris-HCl (pH 7.4), 150 mM NaCl, 1 mM CaCl2; bound Avimer detected via its N-terminal HA tag with an anti-tag antibody-HRP, TMB, OD 450 nm
Settings: both partners purified

B1: FGFR1c/β-Klotho bispecific Avimer C3209 (designed binder)
chain: CGEGLFTCRSTNICISHAWVCDGVDDCEDNSDENNCSAPASEPPGSLCGADQFRCGNGSCVPRAWRCDGVDDCGDGSDEAPEICETPTCQSNEFRCRSGRCIPQHWLCDGLNDCGDGSDESQQCSAPASEPPGSL
notes: C2987 at the N-terminus fused to C2240 (C2240 at the C-terminus) on one polypeptide chain; not shown: influenza hemagglutinin (HA) tag, N-terminal, kept
B1: binds.
